Results as given in patent US20220331267A1, “METHODS AND COMPOSITIONS FOR TREATMENT OF DEMYELINATING DISORDERS” (Rush University Medical Center, priority 2019, published 2022).
At least one compound was matched to its structure with a doubt left.

Legend:
GFPflpparβ = target: T1, GFPflpparβ (Mus musculus, UniProt P35396); assay: GFP-affinity purification and GCMS of Pparb-null OPCs transduced with GFPflpparβ; assay type: binding
T1 construct: host or cells: Pparb-null mouse primary OPCs (lentiviral transduction)
T1 sequence (P35396 1-440): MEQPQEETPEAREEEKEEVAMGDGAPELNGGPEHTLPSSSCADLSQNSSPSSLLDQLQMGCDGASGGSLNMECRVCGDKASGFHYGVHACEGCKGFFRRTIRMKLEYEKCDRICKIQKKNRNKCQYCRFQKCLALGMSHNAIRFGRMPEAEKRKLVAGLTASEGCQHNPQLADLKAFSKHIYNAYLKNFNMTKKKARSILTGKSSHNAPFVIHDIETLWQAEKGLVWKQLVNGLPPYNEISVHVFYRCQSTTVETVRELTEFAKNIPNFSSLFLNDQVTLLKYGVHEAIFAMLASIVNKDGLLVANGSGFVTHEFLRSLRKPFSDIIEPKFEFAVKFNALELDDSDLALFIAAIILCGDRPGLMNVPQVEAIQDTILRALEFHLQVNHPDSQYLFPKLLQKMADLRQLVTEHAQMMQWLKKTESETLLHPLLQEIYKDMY
Text: Therefore, next, we wanted to confirm these interactions in vitro in a cell-bound system. To test that, Pparb-null mouse primary OPCs were isolated from P1 murine neonates, infected with viral particles of GFP, GFPflpparb, GFPV304Mpparb, GFPH412Lpparb constructs for 48 hrs. After that, OPCs were homogenized, passed through the GFP-affinity column, eluted, fractionated with chloroform-methanol, and finally analyzed with GCMS to quantify these ligands. […] Throughout these analyses, we used dodecane as an internal standard.
Sample preparation: After treatment, mouse primary OPCs were homogenized in ice-cold nondetergent hypotonic buffer [10 mM HEPES (pH 7.9), 1.5 mM MgCl2, 10 mM KCl, 100 mM DTT, protease and phosphatase inhibitor cocktail]. After 10 min of additional incubation in the hypotonic buffer, the homogenate was centrifuged at 8,000 g at 4° C. for 10 min. […] The organic phase was collected, evaporated in the speedvac, reconstituted with 30 μL chloroform, and finally analyzed with GCMS. […] After that, the eluate was collected from the column with 5M NaCl solution, concentrated with PD-10 desalting column and analyzed for GCMS.

Pparb-null OPCs = assay: NG2/MBP dual immunofluorescence in Pparb-null OPCs transduced with PPARβ constructs; assay type: cell-based, mouse; conditions: 24 hrs

## CC(C)(C)c1cccc(C(C)(C)C)c1 [DBB, 1,3-Di-tertbutyl benzene]
GFPflpparβ; ligand peak area divided by dodecane peak
  Adjusted Peak Area: 0.04072
GFPflpparβ; relative abundance
  RA: 1
Pparb-null OPCs; H412Lpparβ-infected Pparb-null OPCs
  expression of MBP / differentiation: unaltered
Pparb-null OPCs; V304Mpparβ-infected Pparb-null OPCs
  expression of MBP / differentiation: unaltered
Pparb-null OPCs; flpparβ-transduced Pparb-null OPCs
  expression of MBP / differentiation: strongly upregulated the expression of MBP
